In publication PMC10912226, “Filament formation drives catalysis by glutaminase enzymes important in cancer progression” (Nature Communications, 2024):
These are yes or no findings as the source states them, for the method shown. Some entries that bind do so weakly or less than the wild type. Blank lines part the entries; values can stand above or below the molecule they belong to.

By UniProt entry, the sequences of proteins in these tests, tags left out. Where a name states a change or a piece, a line headed by the entry shows the natural chain unless it says otherwise. Chains listed by the source or under a name are the forms on record and can include a tag or linker.
constitutively active human GAC (K320A) (O94925-3, form named): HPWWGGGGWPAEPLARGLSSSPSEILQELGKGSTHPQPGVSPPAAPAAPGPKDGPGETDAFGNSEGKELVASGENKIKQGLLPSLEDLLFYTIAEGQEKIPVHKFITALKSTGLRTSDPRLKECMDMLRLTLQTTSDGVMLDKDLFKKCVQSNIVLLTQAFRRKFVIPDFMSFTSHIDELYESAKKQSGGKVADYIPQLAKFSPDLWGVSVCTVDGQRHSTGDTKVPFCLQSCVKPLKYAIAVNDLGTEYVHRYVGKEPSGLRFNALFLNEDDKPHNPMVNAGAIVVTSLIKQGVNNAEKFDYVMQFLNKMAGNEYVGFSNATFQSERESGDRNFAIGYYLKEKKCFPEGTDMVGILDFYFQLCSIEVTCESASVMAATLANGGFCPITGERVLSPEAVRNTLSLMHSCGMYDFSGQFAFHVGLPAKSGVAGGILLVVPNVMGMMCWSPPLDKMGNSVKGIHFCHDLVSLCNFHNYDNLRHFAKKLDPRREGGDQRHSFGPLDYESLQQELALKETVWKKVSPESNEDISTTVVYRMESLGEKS
recombinant wild-type human glutaminase C (GAC) (O94925-3, form named): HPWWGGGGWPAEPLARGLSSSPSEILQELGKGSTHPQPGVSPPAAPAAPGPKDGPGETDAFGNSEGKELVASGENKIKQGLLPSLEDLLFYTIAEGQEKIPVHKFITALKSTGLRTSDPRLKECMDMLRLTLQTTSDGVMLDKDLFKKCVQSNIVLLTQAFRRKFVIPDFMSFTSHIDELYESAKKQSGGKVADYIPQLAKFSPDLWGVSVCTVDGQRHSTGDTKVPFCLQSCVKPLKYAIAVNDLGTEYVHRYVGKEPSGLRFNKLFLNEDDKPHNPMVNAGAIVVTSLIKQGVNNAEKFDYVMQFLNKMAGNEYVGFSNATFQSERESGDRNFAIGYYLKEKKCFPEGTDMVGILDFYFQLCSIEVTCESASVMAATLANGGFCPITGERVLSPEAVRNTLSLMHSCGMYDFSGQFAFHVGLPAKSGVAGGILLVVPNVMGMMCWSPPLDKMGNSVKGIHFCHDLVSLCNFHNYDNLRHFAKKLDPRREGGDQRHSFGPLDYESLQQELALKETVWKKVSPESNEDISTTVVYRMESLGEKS
human GAC (Y466W) mutant (O94925-3, form named): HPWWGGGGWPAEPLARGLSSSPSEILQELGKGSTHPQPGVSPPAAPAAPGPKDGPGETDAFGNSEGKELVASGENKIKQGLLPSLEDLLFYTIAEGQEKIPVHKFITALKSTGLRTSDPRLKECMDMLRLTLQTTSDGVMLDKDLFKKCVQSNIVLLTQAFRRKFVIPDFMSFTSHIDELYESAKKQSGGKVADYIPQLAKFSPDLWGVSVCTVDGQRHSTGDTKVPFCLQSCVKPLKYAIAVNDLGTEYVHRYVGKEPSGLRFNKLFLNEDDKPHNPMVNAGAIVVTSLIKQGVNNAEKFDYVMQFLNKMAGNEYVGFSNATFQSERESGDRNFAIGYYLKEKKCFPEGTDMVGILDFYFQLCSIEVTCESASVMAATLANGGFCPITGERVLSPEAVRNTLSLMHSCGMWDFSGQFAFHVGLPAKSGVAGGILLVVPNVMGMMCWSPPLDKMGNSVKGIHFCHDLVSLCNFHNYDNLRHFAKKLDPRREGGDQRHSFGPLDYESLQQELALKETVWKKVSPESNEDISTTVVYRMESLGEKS

Columns and labels:
[1] = molecular target: constitutively active human GAC (K320A) (human) (UniProt O94925); assay: negative stain electron microscopy; constitutively active mutants with glutamine alone, no Pi; step: tetramers to filament; both purified
[2] = molecular target: constitutively active human GAC (K320A) (human) (UniProt O94925); assay: right-angle light scattering (RALS); constitutively active mutants, 20 mM Tris-HCl pH 8.5, 150 mM NaCl, 25 °C, 340 nm; glutamine alone, no Pi; step: tetramers to filament; both purified
[3] = molecular target: recombinant wild-type human glutaminase C (GAC) (human) (UniProt O94925); assay: negative stain electron microscopy; glutaminase 1 µM with glutamine 20 mM and inorganic phosphate (50-200 mM), RT, 30 s to 1 min after mixing (GAC Y466W with DMSO also 30 min); step: tetramers to filament; both purified
[4] = molecular target: human GAC (Y466W) mutant (human) (UniProt O94925); assay: cryo-EM structure; GAC (Y466W) 8 µM with 20 mM glutamine and 1 M inorganic phosphate; helical reconstruction, D2 symmetry; filament of tetramers; both purified
[5] = molecular target: human GAC (Y466W) mutant (human) (UniProt O94925); assay: right-angle light scattering (RALS); glutaminase 2 µM in 20 mM Tris-HCl pH 8.5, 150 mM NaCl, 25 °C, 340 nm; with Pi (50-100 mM) and glutamine 20 mM; step: tetramers to filament; both purified
[6] = molecular target: human GAC (Y466W) mutant (human) (UniProt O94925); assay: condition: only with UPGL0004 (1 µM); filament step; negative stain electron microscopy; GAC (Y466W) 1 µM with Pi 200 mM and UPGL0004 1 µM, 30 s after adding substrate 20 mM; step: tetramers to filament; both purified
[7] = molecular target: human GAC (Y466W) mutant (human) (UniProt O94925); assay: negative stain electron microscopy; glutaminase 1 µM with glutamine 20 mM and inorganic phosphate (50-200 mM), RT, 30 s to 1 min after mixing (GAC Y466W with DMSO also 30 min); step: tetramers to filament; both purified
[8] = molecular target: human liver-type glutaminase GLS2, wild type, without the mitochondrial localization sequence (residue 38-602) (human) (UniProt Q9UI32); assay: condition: only with compound 968 (10 µM); filament step; negative stain electron microscopy; GLS2 1 µM with Pi 50 mM and compound 968 10 µM, 30 s after adding substrate 20 mM; step: tetramers to filament; both purified
[9] = molecular target: human liver-type glutaminase GLS2, wild type, without the mitochondrial localization sequence (residue 38-602) (human) (UniProt Q9UI32); assay: condition: only without glutamine (Pi alone); filament step; right-angle light scattering (RALS); GLS2 2 µM in 20 mM Tris-HCl pH 8.5, 150 mM NaCl, 25 °C, 340 nm; with Pi, without glutamine; step: tetramers to filament; both purified
[10] = molecular target: human liver-type glutaminase GLS2, wild type, without the mitochondrial localization sequence (residue 38-602) (human) (UniProt Q9UI32); assay: condition: only glutamate (20 mM) in place of glutamine; filament step; right-angle light scattering (RALS); GLS2 2 µM with Pi 100 mM, 25 °C, 340 nm; glutamate 20 mM added instead of glutamine; step: tetramers to filament; both purified

binding [3]: binds
Molecule: recombinant wild-type human glutaminase C (GAC) (from UniProt O94925-3 55-598) (enzyme)

binding [8]: no binding
binding [9]: no binding
binding [10]: no binding
B1: human liver-type glutaminase GLS2, wild type, without the mitochondrial localization sequence (residue 38-602) (enzyme, UniProt Q9UI32 38-602, looked up)
chain: HHLSEAAAQGRETPHSHQPQHQDHDSSESGMLSRLGDLLFYTIAEGQERIPIHKFTTALKATGLQTSDPRLRDCMSEMHRVVQESSSGGLLDRDLFRKCVSSNIVLLTQAFRKKFVIPDFEEFTGHVDRIFEDVKELTGGKVAAYIPQLAKSNPDLWGVSLCTVDGQRHSVGHTKIPFCLQSCVKPLTYAISISTLGTDYVHKFVGKEPSGLRYNKLSLNEEGIPHNPMVNAGAIVVSSLIKMDCNKAEKFDFVLQYLNKMAGNEYMGFSNATFQSEKETGDRNYAIGYYLKEKKCFPKGVDMMAALDLYFQLCSVEVTCESGSVMAATLANGGICPITGESVLSAEAVRNTLSLMHSCGMYDFSGQFAFHVGLPAKSAVSGAILLVVPNVMGMMCLSPPLDKLGNSHRGTSFCQKLVSLFNFHNYDNLRHCARKLDPRREGAEIRNKTVVNLLFAAYSGDVSALRRFALSAMDMEQKDYDSRTALHVAAAEGHIEVVKFLIEACKVNPFAKDRWGNIPLDDAVQFNHLEVVKLLQDYQDSYTLSETQAEAAAEALSKENLESMV
notes: Tetramer in the apo state (cryo-EM); tetramers stack into filaments with glutamine and Pi; also called LGA; apo-GLS2; source: E. coli BL21 (DE3), purified (Co2+ TALON resin, HiTrap Q anion exchange, Superdex 200 SEC)

The remaining lines, values behind:

Molecule: constitutively active human GAC (K320A) (from UniProt O94925-3 55-598) (enzyme)
binding [1]: binds
binding [2]: binds

Molecule: human GAC (Y466W) mutant (from UniProt O94925-3 55-598) (enzyme)
binding [4]: binds
binding [5]: binds
binding [6]: no binding
binding [7]: binds
